Measured values taken from paper PMC3324464, “The GPI Anchor Signal Sequence Dictates the Folding and Functionality of the Als5 Adhesin from Candida albicans” (PLoS ONE, 2012).
No constants are given. Whether binding was seen depends on the method and setting.

The chains behind the UniProt entries cited, without tags or fusion partners. Residues count along the entry.
UniProt Q5A8T7, residues 20-1327: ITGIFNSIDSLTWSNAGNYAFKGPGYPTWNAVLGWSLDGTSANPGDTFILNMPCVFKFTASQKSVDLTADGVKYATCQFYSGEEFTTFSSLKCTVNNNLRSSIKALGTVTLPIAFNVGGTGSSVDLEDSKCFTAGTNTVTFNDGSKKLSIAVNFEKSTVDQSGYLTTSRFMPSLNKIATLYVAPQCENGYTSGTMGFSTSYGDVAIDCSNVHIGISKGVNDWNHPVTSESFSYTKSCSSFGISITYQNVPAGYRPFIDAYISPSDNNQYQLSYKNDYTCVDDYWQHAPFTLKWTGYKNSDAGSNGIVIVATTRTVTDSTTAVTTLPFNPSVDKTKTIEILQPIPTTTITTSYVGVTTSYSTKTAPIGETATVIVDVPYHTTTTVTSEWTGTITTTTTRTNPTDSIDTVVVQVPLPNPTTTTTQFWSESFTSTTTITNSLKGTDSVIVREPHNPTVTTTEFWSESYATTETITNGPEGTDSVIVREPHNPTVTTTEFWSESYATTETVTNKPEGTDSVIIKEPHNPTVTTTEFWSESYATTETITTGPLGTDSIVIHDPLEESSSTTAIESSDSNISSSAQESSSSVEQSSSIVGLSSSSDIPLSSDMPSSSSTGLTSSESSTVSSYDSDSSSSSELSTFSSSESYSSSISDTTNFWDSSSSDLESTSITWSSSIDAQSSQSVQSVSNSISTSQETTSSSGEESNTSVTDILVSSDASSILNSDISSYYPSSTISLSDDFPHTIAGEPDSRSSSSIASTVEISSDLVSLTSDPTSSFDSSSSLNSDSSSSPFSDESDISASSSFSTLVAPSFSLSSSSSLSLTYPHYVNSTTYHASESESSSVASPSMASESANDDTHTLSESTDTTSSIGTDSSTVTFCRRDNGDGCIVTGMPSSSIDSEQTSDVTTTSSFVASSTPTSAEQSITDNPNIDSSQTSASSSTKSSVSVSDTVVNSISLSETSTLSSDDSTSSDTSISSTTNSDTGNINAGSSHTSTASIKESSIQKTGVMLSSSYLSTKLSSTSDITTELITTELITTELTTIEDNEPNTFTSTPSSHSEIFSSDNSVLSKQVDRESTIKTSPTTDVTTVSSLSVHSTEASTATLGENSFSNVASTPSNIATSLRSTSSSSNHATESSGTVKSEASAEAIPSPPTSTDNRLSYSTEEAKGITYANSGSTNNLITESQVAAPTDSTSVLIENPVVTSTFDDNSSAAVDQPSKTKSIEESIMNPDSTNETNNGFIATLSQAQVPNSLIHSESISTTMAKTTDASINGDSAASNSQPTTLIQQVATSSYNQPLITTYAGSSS

Target: GST-Als5 (Candida albicans) (UniProt Q5A8T7)
Test: other fluorescence titration; both purified

B1: AYKSLMT (peptide)
peptide: AYKSLMT
notes: source: synthetic peptide (USV Ltd.)
binding: no binding (condition: at 4 °C)
